From patent US10306895B2, “Plant defense signaling peptides and applications thereof” (Academia Sinica, priority 2014, dated 2019)
Not every detail of the peptide structures is certain; ends, links or a residue may be inferred. Ends that are not written are not given here.

Assays:
SA biosynthesis = assay: Systemic immune response: SA in local and systemic tomato leaves; assay type: in vivo; details: local leaves treated with 250 nM CAPE1 for 24 hours, systemic leaves covered
Spodoptera litura larvae = assay: Herbivory treatment: larvae fed with leaves of presprayed tomato plants; assay type: in vivo
[1] = system: Pseudomonas syringae pv. tomato DC3000 (Pst DC3000); assay type: in vivo; details: plants sprayed with 100 nM peptide for 2 hours prior to inoculation
Description: (a) Changes of the larval sizes after feeding with water or 250 nM CAPE1 treated tomato leaves. The larval weights of thirty larvae were recorded each day. (b) The Pst DC3000 infection phenotypes of the plants presprayed with water or 100 nM CAPE1 peptide for 2 hours (n=3) prior to pathogen inoculation. […] All statistically significant differences between the CAPE1- and water-treated samples are indicated with * (P<0.05) or *** (P<0.001) based on Student's t-test.
(a) The level of SA induced by CAPE1 and flg22. The excised plants were pretreated with 10 mM phosphate buffer (buffer) or 365 nM CAPE1 or 365 nM flg22 in buffer through the cut stem for 8 hours (n=3). The quantity of SA was quantified by LC-SRM-MS and calculated based on the abundance of spiked SA isotopic standard (d6-SA). (b) The relative expression of WRKY53 and PR-1b were quantified by comparing the expression levels in untreated detached leaves with the detached leaves treated with water, 250 nM CAPE1 or 250 nM flg22 for 2 hours (n=4). The internal control Ubi3 was used for normalization. (c) The Pst DC3000 infection phenotypes for plants presprayed with water, 100 nM CAPE1 or 100 nM flg22 peptide for 2 hours (n=3) prior to the pathogen inoculation. The infection symptoms were observed 4 days after inoculation. […]

[2] = system: anti-herbivore and anti-pathogen defense response genes; assay: cDNA microarray analysis of detached tomato leaves immersed in peptide; assay type: in vivo, Solanum lycopersicum (tomato); details: detached leaves immersed in 250 nM CAPE1 for 1, 2, 4 and 8 hours

## PVGNWIGQRPY [CAPE1, PVGNWIGQRPY]
SA biosynthesis
  systemic induction of SA biosynthesis: can be induced by CAPE1 systemically
Spodoptera litura larvae; 30 larvae fed leaves of plants pre-sprayed with 250 nM CAPE1, vs water
  reduction of larval weight: about 20%
Spodoptera litura larvae; larvae fed leaves of plants pre-sprayed with 250 nM CAPE1, vs water
  larval growth: suppressed larval growth
[1]
  plant resistance to Pst DC3000 infection in tomato: resulted in plant resistance to Pst DC3000 infection
[2]
  expression of genes involved in the anti-herbivore and anti-pathogen defense response (microarray): elevates the expression of several genes
